Measurements as given in US8470889B2 (TRT Pharma Inc., priority 2008, dated 2013).
At least one compound was matched to its structure with a doubt left.

Columns and labels:
Bic-LNCaP cells = experiment: MTT cellular growth, Bic-LNCaP; type: cell-based; settings: FIG. 10
MDA PCa 2b cells = experiment: MTT cell growth inhibition, MDA PCa 2b;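 note: MDA PCa 2b prostate cancer cells in BRFF-HPC1 with 20% FBS, exposed to compounds for 72 h, viable-cell MTT formazan read as absorbance at 600 nm, 0.5% DMSO vehicle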; settings: 72 hrs; concentrations up to 50 μM; FIG. 2
22Rv1 cells = experiment: MTT cell growth inhibition, 22Rv1; settings: 72 hrs; concentrations up to 50 μM; FIG. 2
HP-LNCaP cells = experiment: MTT cellular growth, HP-LNCaP; type: cell-based; settings: FIG. 10
Method: HP-LNCaP cells were grown in the androgen-depleted medium (FIG. 9A) and grow more aggressively than LNCaP cells in the whole medium (FIG. 9B). Cellular growth was evaluated by MTT assays. […] HP-LNCaP cells over-express AR protein (FIG. 10C).

CC(O)(CS(=O)(=O)c1ccc(F)cc1)C(=O)Nc1ccc(C#N)c(C(F)(F)F)c1 (stereo not shown) [Bic, bicalutamide, reference compound]
resistant: activity against Bic-LNCaP cells (Bic-LNCaP cells) | growth inhibitory effect on PCa 2b cells (MDA PCa 2b cells) | growth inhibitory effect on 22Rv1 cells (22Rv1 cells) | activity against HP-LNCaP cells (HP-LNCaP cells)
